Test results from patent US6444644B1, “Anticoagulant peptide fragments derived from apolipoprotein B-100” (University College London, priority 1996, dated 2002).
Some entries share one result that the patent states for a list of compounds.

By UniProt entry, the sequences of proteins in these tests, tags left out. Residues count along the entry.
UniProt P13726, 33-295: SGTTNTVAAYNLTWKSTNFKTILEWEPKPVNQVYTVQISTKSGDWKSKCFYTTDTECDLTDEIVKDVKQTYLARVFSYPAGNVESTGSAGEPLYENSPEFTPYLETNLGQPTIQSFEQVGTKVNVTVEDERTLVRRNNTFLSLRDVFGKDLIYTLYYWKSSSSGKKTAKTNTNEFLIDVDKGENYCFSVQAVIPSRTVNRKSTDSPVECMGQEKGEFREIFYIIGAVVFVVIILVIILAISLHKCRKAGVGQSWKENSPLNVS

Molecular target: T1, thromboplastin (Homo sapiens, UniProt P13726)
T1 construct: purchased Gamidor Ltd. (Oxfordshire, U.K.)
Assay: Time-course inhibition of thromboplastin procoagulant activity (one-stage prothrombin time and two-stage amidolytic assay)
Type: biochemical
Conditions: 500 nM, 37° C., 70 min incubation
Description: The one stage prothrombin time assay was carried out by the addition of 100 μl of the sample to 100 μl of 25 mM CaCl2 solution and incubation prior to addition of 100 μl of control plasma. The clotting time was measured on the coagulometer. The two-stage amidolytic assay was carried according to published procedures. In all cases the thromboplastin activity was calculated from a standard curve prepared previously and the percentage inhibition was calculated as 100×[…].
The apolipoprotein B-100 control peptide (fragment 3358-3372) containing the sequence TRLTRKRGLKLATAL was reconstituted in distilled water to 1 mM. […] Following the incubation the thromboplastin activity in all the samples was measured by means of the one-stage prothrombin time assay and the two-stage amidolytic assay and the percentage inhibition calculated against the control containing distilled water.
The above experiments were repeated using 1 ml samples containing recombinant thromboplastin (10 U/ml) mixed with either 500 nM KRAD-14, 500 nM KRAD-98 or 500 nM apolipoprotein B-100, reconstituted as described before. […] The rest of the samples were incubated at 37° C. and further 100 μl samples were removed at intervals up to 120 min and measured as before. The percentage inhibition was calculated against a control sample of thromboplastin. […]

Substance: Reconstituted apolipoprotein B-100: apolipoprotein B-100 isolated from LDL by delipidation and gel filtration, reconstituted in phosphatidylcholine
- inhibition of the procoagulant activity of thromboplastin: > 90%
